Measurements published in patent US20050106730A1, “Compositions and methods utilizing stable reporter cell lines for detection of pathway-specific signal transduction” (priority 1999, published 2005).
Some entries share one result that the patent states for a list of compounds.

Tested on: cAMP/CREB pathway (GAL4-CREB fusion)
Experiment: Luciferase reporter assay in RCLH-CREB stable reporter cells treated with extracellular stimuli
Assay type: cell-based, human
Details: compound by itself, not shown

SMILES | Increase of luciferase activity over controls
CCCC(=O)Nc1ncnc2c1ncn2[C@@H]1O[C@@H]2COP(=O)(O)O[C@H]2[C@H]1OC(=O)CCC [Dibutyryl cAMP] | less than 3 fold
CC(C)Cn1c(=O)n(C)c(=O)c2[nH]cnc21 [IBMX] | less than 3 fold
C=C[C@@]1(C)CC(=O)[C@]2(O)[C@@]3(C)[C@@H](O)CCC(C)(C)[C@@H]3[C@H](O)[C@H](OC(C)=O)[C@@]2(C)O1 [forskolin] | less than 3 fold
